Library screen at single concentrations

The filed quantity is “Percent Effect” (%).
How 0% and 100% were set is not recorded. Most values in the screen are low, and negative values occur.
This is an unselected part of the compounds tested.
Two or more numbers in one place are separate tests of the same structure; such repeats can differ widely.

A: 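Growth of Mycobacterium tuberculosis over 3 days (7H9 medium with glucose and tyloxapol); the read-out is not stated. Concentration: 50 µM. Direction is inferred from retests: higher values go with more growth inhibition. Size under these conditions: about 69,000 compounds, about 760 of them at 50% or above in at least one test.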
B: 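Phenotypic screen: M. tuberculosis growth, cholesterol and DPPC medium, 4 days; the read-out is not stated. Compounds at 50 µM. Higher reads as more growth inhibition (inferred: compounds with an IC50 in retests scored well above the rest). Of about 69,000 compounds tested this way, about 370 (0.54%) reached 50% or more in at least one test.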

compound | A | B
O=C(Nc1ccccn1)C1CCN(Cc2cc3c(cc2O)OCO3)CC1 | -23.74% | -16.67%
CCOc1ncccc1C(=O)N1CCCC(n2nc(C)nc2C)C1 (stereo not drawn) | 6.886% | 4.069%
c1cnn(CC2CCCCN2c2ncnc3ccsc23)c1 (stereo not drawn) | -2.186% | 12%
Cc1ccc2c(C(=O)N(C)C)cc(-c3cnn(CCO)c3)nc2c1C | 12.15% | 16%
CN(c1ncc(S(N)(=O)=O)s1)C1CCc2ccccc21 (stereo not drawn) | -12.66% & 17.53% | 22.1%
Cc1nc2n(n1)CC(NCc1csc(-c3ccsc3)n1)CC2 (stereo not drawn) | -7% | 9.117%
CN1CCCN(C[C@@H]2CN(C(=O)CCc3cn[nH]c3)C[C@@H]2CO)CC1 | 20.03% | -1.989%
CC(C)C(=O)N(C)CC(=O)Nc1ccc(Br)cn1 | -0.8818% | 13.75%
O=C(N[C@@H]1CN(Cc2cccc(F)c2)C[C@H]1O)c1cscn1 | 4.361% | -5.337%
CC(C)Cc1noc(CN2CCOCC2C)n1 (stereo not drawn) | 22% | 11.14%
[H][C@]12CN(S(=O)(=O)c3ccc(C(=O)NCc4ccc(C)o4)cc3)[C@]([H])(CN1)C2 | -9.359% | -15.29%
CSc1nc2cc(C)n(CC(=O)Nc3nccs3)c2c(=O)n1CC(C)C | -25.78% | -12.06%
O=C(CCc1cccs1)N1CCC(Nc2cccnn2)CC1 | 24.65% | -9.394%
[H][C@@]12CO[C@@H](CNS(C)(=O)=O)[C@]1([H])CCN(C(=O)c1ccccc1)C2 | -3.116% & -1.256% | -2.682%
Cc1ccc(C(=O)NC2CCOc3ccccc32)cc1S(C)(=O)=O (stereo not drawn) | -3.178% | -30.09%
Cc1cc(NC(=O)Cc2ccccc2O)c[nH]c1=O | -17.64% | -25.76%
COC1CN(C(=O)OCC(C)C)CCC(=O)N(C)c2ccccc21 (stereo not drawn) | 22.64% | 4.576%
CC(=O)NCC[C@H]1CC(C)(C)Oc2ccccc21 | 1.854% | -20.33%
COc1cc(NC(=O)C2CC(=O)N(c3cccc(Br)c3)C2)ncn1 (stereo not drawn) | 6.649% & 34.83% | 22.63%
CCc1[nH]c2ccc(CNc3cncc(C(=O)N(C)C)n3)cc2c1C | 13.28% | 15.43%
CC1CCC(NC(=O)c2nn(C)cc2Br)CC1 (stereo not drawn) | -0.3919% | 9.964%
CN(C)C(=O)CC1CC2(CCN(Cc3ccoc3)CC2)c2ccccc21.O=C(O)C(F)(F)F (stereo not drawn) | 21.05% | -0.3542%
CN(CC1CCCO1)C1CCN(CCc2ccccn2)CC1 (stereo not drawn) | 7.428% | -3.06%
CCn1ccnc1CNCc1ccc(C)cc1OC(C)(C)C | 16.72% | 16.8%
CCNC(=O)[C@@H]1C[C@H](N)CN1C(=O)CCc1ccccc1Cl | -37.55% | 9.399% & -6.035%
CN(CCCC1CCCO1)S(=O)(=O)NCc1ccccc1 (stereo not drawn) | -6.929% | 0.2906%
CCN1CCN(c2ccc(NC(=O)CC(C)C)c(C)c2)CC1 | -36.21% | -13.9%
Cc1ccc(C)c(-n2ccc3nc(N4CCCC4)ncc3c2=O)c1 | -9.667% | -2.565%
O=C1CC(c2cccnc2)C2(CCN(C(=O)c3ccncc3)CC2)N1 (stereo not drawn) | -20.55% | -7.17%
COc1ncccc1-c1ncccc1NC(=O)C(C)C | -21.21% | 1.669%
CC(C)c1noc(CN(Cc2cccs2)C2CC2)n1 | -46.6% | -7.466%
Cc1ncc(CN2CCC(c3nc(O)cc(-c4ccsc4)n3)CC2)cn1 | -6.206% | 19.94%
Cl.Nc1ncnc2nc(C3CCCCN3)ccc12 (stereo not drawn) | -5.042% | -20.51% & 2.957%
CC1=Nc2c(c(=O)[nH]n2C(C)C)C(c2ccccc2)S1 (stereo not drawn) | -13.23% | -4.599%

Once more, the final 2:

| compound | A | B |
|---|---|---|
| `Cl.Nc1ncnc2nc(C3CCCCN3)ccc12` (stereo not drawn) | -5.042% | -20.51% & 2.957% |
| `CC1=Nc2c(c(=O)[nH]n2C(C)C)C(c2ccccc2)S1` (stereo not drawn) | -13.23% | -4.599% |

Measurements from “University of Dundee, Small-Polar-MMV Screening Library” (2021), ChEMBL document CHEMBL3988442.